Measured values published in publication PMC12741749.
These are yes or no findings as the source states them, for the method shown. Binding seen in cells or lysates may run through a third protein. Some entries that bind do so weakly or less than the wild type.

Protein sequences, listed by entry. Tags and fused reporters are not part of them.
UniProt P48431: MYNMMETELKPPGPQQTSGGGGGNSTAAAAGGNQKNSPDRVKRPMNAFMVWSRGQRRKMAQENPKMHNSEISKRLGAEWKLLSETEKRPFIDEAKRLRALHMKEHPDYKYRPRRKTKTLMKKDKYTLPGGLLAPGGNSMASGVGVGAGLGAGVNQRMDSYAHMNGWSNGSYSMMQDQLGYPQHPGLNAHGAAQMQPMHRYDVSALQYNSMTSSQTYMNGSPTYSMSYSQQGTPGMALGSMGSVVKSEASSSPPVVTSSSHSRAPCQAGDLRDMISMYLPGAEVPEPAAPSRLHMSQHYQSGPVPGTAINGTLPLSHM
UniProt Q86UP3: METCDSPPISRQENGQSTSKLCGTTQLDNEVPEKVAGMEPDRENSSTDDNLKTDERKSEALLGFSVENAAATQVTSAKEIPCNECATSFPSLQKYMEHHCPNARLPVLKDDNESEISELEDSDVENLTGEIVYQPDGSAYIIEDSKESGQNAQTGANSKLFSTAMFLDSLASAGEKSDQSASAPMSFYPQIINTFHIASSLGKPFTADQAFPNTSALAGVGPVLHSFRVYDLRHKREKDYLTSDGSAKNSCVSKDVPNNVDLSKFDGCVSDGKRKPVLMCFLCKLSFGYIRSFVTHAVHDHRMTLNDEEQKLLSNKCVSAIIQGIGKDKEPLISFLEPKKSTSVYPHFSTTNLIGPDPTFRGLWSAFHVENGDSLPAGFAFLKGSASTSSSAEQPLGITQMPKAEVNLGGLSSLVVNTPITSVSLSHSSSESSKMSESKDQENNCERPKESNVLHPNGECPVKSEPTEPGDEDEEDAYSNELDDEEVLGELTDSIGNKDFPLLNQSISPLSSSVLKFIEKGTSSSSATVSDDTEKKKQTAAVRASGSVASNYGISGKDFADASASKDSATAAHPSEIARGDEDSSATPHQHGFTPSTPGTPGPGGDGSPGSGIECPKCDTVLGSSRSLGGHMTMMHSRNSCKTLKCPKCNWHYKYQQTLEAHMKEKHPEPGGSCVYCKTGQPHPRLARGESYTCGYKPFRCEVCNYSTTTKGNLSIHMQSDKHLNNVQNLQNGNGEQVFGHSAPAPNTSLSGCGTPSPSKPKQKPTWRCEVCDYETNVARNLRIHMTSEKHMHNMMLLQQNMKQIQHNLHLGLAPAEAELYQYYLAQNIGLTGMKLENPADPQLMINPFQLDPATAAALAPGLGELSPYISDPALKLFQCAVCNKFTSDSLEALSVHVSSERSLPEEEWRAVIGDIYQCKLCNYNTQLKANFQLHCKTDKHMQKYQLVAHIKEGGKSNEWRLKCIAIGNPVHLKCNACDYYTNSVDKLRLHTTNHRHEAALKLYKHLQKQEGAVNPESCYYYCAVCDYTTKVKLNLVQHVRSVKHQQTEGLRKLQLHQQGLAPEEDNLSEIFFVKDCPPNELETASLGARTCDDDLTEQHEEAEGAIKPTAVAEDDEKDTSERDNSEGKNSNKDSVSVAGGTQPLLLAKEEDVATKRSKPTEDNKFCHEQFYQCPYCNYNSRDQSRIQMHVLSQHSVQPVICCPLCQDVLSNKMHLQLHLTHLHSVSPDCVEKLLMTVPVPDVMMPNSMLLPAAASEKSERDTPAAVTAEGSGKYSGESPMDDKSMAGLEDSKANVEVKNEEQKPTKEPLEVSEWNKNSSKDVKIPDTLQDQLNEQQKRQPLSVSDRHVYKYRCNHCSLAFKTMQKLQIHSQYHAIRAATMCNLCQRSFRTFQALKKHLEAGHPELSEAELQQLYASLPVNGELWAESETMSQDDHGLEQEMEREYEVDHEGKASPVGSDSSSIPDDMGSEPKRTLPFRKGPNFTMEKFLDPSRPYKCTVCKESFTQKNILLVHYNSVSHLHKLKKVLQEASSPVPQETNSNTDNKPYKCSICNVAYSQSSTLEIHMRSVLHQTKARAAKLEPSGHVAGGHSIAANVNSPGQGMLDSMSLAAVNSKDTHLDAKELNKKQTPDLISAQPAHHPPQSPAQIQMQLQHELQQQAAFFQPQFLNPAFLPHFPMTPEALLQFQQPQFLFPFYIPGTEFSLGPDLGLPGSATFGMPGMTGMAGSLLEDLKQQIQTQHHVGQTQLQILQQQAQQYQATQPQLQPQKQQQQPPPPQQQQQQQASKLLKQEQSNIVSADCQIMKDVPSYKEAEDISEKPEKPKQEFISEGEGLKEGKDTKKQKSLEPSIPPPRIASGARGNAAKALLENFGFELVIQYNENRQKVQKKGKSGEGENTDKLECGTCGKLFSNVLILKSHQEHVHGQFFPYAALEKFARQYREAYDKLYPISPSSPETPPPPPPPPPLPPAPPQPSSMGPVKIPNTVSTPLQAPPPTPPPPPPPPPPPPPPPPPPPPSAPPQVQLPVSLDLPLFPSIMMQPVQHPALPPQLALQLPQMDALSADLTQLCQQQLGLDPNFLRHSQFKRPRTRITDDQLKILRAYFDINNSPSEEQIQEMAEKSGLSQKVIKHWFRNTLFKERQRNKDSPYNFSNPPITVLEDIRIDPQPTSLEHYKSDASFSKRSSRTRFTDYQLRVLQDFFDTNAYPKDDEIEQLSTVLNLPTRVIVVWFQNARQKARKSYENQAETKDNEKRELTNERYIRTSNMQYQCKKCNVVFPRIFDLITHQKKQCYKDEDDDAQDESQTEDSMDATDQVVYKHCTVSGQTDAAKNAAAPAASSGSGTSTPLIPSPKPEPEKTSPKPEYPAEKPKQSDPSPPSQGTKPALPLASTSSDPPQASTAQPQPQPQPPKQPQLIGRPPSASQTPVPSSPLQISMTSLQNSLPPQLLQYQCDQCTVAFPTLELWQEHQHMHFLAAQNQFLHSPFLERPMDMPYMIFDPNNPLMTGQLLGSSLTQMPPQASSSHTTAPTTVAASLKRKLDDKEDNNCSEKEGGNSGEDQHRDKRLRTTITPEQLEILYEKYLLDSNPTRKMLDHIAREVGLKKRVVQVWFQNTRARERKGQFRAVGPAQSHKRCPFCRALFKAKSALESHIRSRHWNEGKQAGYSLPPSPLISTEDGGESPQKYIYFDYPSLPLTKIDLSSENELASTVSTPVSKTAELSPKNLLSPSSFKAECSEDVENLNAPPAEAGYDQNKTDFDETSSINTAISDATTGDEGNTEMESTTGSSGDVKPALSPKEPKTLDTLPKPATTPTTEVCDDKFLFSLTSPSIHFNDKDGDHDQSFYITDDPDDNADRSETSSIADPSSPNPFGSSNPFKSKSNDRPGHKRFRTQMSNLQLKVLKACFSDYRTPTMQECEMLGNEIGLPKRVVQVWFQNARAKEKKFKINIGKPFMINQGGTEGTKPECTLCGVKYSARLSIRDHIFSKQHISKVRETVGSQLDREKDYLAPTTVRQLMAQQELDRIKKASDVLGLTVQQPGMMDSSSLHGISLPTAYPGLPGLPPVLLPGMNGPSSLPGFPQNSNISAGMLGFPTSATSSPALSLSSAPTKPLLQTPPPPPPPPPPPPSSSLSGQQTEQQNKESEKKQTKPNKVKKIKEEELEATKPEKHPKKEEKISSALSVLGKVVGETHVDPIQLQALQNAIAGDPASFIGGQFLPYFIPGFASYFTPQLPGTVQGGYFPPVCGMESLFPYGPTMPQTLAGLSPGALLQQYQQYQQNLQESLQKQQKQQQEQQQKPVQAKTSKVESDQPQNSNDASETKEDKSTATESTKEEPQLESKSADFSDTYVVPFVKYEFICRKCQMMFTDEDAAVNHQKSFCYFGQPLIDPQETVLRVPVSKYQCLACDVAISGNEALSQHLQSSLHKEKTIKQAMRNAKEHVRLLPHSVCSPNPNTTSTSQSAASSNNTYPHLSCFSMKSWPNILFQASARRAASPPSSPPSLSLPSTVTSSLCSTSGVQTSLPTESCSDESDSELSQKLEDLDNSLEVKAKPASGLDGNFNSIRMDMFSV

Biological target: SRY-Box Transcription Factor 2 (human (in glioma cell lines)) (UniProt P48431)
Test: co-IP; glioma cell lysate (RIPA Lysis Buffer) incubated with anti-SOX2 antibody overnight at 4 °C, protein A/G-agarose beads 2 hours at 4 °C, washed three times with lysis buffer, Western blotting

binding: binds
Substance: Zinc Finger Homeobox 4 (from UniProt Q86UP3 1-3567)
